# Laboratory results from the supplement of paper PMC9135407.
# Values joined by “and” are separate entries in the source; they are usually repeats but may differ in a detail not shown here. Identical values can stand only once. Counter-ions that a name gives are not always drawn. ± gives the standard deviation of the averaged measurements. Some of the results follow. Baselines shift from plate to plate; read single values as rough.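 Culture-activated primary human stellate myofibroblasts, where regained lipid droplets signal inactivation. Value: share of Hoechst-counted cells above a per-plate Bodipy cutoff, in duplicate wells, with DMSO negative and nortriptyline positive controls on each plate. Hits: a control-normalized score above the plate's top-tenth-percentile nortriptyline wells, or one of a plate's three best wells. Final well concentrations are not given.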
# System: primary human hepatic stellate cells (donor 1)
# Test: percent Bodipy-positive cells; higher = more lipid droplet accumulation
# Settings: 48 h
# Description: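 Primary lipid accumulation screen in primary human hepatic stellate cell myofibroblasts (donor 1, passage 8) in 384-well plates. 100 nL of library compound was pin-transferred into 30 µL medium in duplicate, and cells were treated for 48 h. The 'Scaled' score combines distance from plate baseline, toxicity and reproducibility penalties, and is normalised to nortriptyline (positive) and DMSO (negative) controls on each plate. A hit is defined as scaled >0.85 or among the top 3 wells per plate.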
# [1] = library stock concentration: 10 mM
# [2] = library stock concentration: 3.33 mM
# [3] = library stock concentration: 80 uM
# [4] = library stock concentration: 400 uM
compound,measurement,setting,value
CC(C)CN1CCC(CNCc2ccc(C#CC(C)(C)O)s2)CC1,percent Bodipy-positive cells,[1],76.1 ± 8.1%
C[C@]12CCC(=O)C=C1[C@@H]1C[C@@H]1[C@H]1[C@@H]3[C@@H]4C[C@@H]4[C@@]4(CCC(=O)O4)[C@@]3(C)CC[C@@H]12,percent Bodipy-positive cells,[1],53.8 ± 17%
C[C@]12CCC(=O)C=C1[C@@H]1C[C@@H]1[C@H]1[C@@H]3[C@@H]4C[C@@H]4[C@@]4(CCC(=O)O4)[C@@]3(C)CC[C@@H]12 [Drospirenone],percent Bodipy-positive cells,[2],11.2 ± 2.9%
same,percent Bodipy-positive cells,[1],22.8 ± 1.4%
OCCn1cc(-c2cnc3nnn(Cc4ccc5ncccc5c4)c3n2)cn1,percent Bodipy-positive cells,[3],8.95 ± 1.6%
same,percent Bodipy-positive cells,[4],17% and 27.8%
same,percent Bodipy-positive cells,library stock concentration: 2 mM,9.47% and 19.7%
same,percent Bodipy-positive cells,[2],6.34 ± 3.4%
CC1=C(/C=C/C(C)=C/C=C/C(C)=C/CO)C(C)(C)CCC1 [Retinol],percent Bodipy-positive cells,library stock concentration: 7 mM,19.4 ± 5%
same,percent Bodipy-positive cells,[1],23.2 ± 3.5%
O=C(O)c1ccccc1OP(=O)(O)O [Fosfosal],percent Bodipy-positive cells,,7.44 ± 2.1%
same,percent Bodipy-positive cells,[1],19.4 ± 2.6%
C/C=C(/C(=C/C)c1ccc(O)cc1)c1ccc(O)cc1 [Dienestrol],percent Bodipy-positive cells,,20 ± 6.6%
same,percent Bodipy-positive cells,library stock concentration: 7.5 mM,14 ± 0.22%
same,percent Bodipy-positive cells,[1],10.1 ± 3.1%
CCOc1cc2ncc(C#N)c(Nc3ccc(F)c(Cl)c3)c2cc1NC(=O)C=CCN(C)C [Pelitinib (EKB-569)],percent Bodipy-positive cells,[2],97.4 ± 2.8%
Nc1nc2[nH]c(=O)[nH]c2c(=O)[nH]1 [8-hydroxy Guanine (hydrochloride)],percent Bodipy-positive cells,library stock concentration: 1 mM,8.63 ± 0.42%
Cc1ncc([N+](=O)[O-])n1CC(C)O (centres undefined) [Secnidazole],percent Bodipy-positive cells,[2],6.63 ± 0.6%
Cc1ncc([N+](=O)[O-])n1CC(C)O (centres undefined) [1-(2-Methyl-5-nitro-imidazol-1-yl)-propan-2-ol],percent Bodipy-positive cells,[1],12.5 ± 4.2%
CCCCn1c(=O)c2[nH]c(C34CC5CC(CC3C5)C4)nc2n(CCCO)c1=O,percent Bodipy-positive cells,[1],7.15 ± 3.5%
CC(C)C[C@H](NC(=O)N1CCCCCC1)C(=O)N[C@H](Cc1cn(C)c2ccccc12)C(=O)N[C@H](Cc1ccccn1)C(=O)O,percent Bodipy-positive cells,[1],9.2 ± 3.4%
O=C1C(SCCO)=C(SCCO)C(=O)c2ccccc21,percent Bodipy-positive cells,library stock concentration: 16.1 mM,100%
O=C(O)c1ccc2cc(-c3ccc(O)c(C45CC6CC(CC(C6)C4)C5)c3)ccc2c1,percent Bodipy-positive cells,[1],11.7 ± 5.7%
CCC(NC(C)C)C(O)c1ccc(O)c2[nH]c(=O)ccc12 (centres undefined) [Procaterol hydrochloride],percent Bodipy-positive cells,library stock concentration: 6.1 mM,2.27 ± 1.1%
same,percent Bodipy-positive cells,[1],11.6 ± 4.9%
CCC(NC(C)C)C(O)c1ccc(O)c2[nH]c(=O)ccc12 (centres undefined) [Procaterol hcl],percent Bodipy-positive cells,library stock concentration: 6.9 mM,11.3 ± 3.8%
Cc1ccc(C(=O)Nc2ccc(CN3CCN(C)CC3)c(C(F)(F)F)c2)cc1C#Cc1cnc2[nH]ncc2c1,percent Bodipy-positive cells,[2],99.63 ± 0.53%
same,percent Bodipy-positive cells,[1],100%
O=C(Nc1ccc(S(=O)(=O)Nc2ccccc2Cl)c(Cl)c1)c1ccccn1,percent Bodipy-positive cells,[2],42.5 ± 11%
same,percent Bodipy-positive cells,[1],47.4 ± 7.9%
Oc1ccc(-c2nc(-c3ccc(F)cc3)c(-c3ccncc3)[nH]2)cc1,percent Bodipy-positive cells,[3],13.5 ± 7.2%
same,percent Bodipy-positive cells,[4],16.8% and 31.1%
same,percent Bodipy-positive cells,[2],10.1% and 11.1%
same,percent Bodipy-positive cells,library stock concentration: 15.1 mM,34.5 ± 2.1%
O=c1n(CCCN2CCN(c3cccc(Cl)c3)CC2)nc2ccccn12 [Trazodone hydrochloride],percent Bodipy-positive cells,,31.84 ± 0.11%
same,percent Bodipy-positive cells,library stock concentration: 4.9 mM,32.8 ± 7.6%
same,percent Bodipy-positive cells,[1],39.5% and 47.2%
O=c1n(CCCN2CCN(c3cccc(Cl)c3)CC2)nc2ccccn12,percent Bodipy-positive cells,[1],8.69 ± 2%
CC(=O)NCCCCCC(=O)O [Acexamic acid],percent Bodipy-positive cells,[1],23 ± 2.1%
O=C(O)c1cc(=O)[nH]c(=O)[nH]1 [Orotic acid (6-Carboxyuracil)],percent Bodipy-positive cells,[2],7.46 ± 2.1%
same,percent Bodipy-positive cells,[1],19.9 ± 2.2%
O=C(O)c1cc(=O)[nH]c(=O)[nH]1,percent Bodipy-positive cells,[1],26.4 ± 2.1%
Cl.N#Cc1ccc2[nH]cc(CCCCN3CCN(c4ccc5oc(C(N)=O)cc5c4)CC3)c2c1 [Vilazodone HCl],percent Bodipy-positive cells,[1],98.73 ± 0.21%
"CCCCCC(=O)/C=C/C=C\CCCCCCCC(=O)O [13-Keto-octadeca-9Z,11E-dienoic acid]",percent Bodipy-positive cells,library stock concentration: 100 uM,6.22 ± 3.9%
Cc1ccccc1C(C(=O)NC1CCCCC1)N(C(=O)Cn1ccnc1C)c1cccc(F)c1 (centres undefined),percent Bodipy-positive cells,[2],34.6 ± 10%
same,percent Bodipy-positive cells,[1],47 ± 7.7%
CN(C)C(=O)n1nnnc1Cc1ccc(-c2ccccc2)cc1,percent Bodipy-positive cells,[1],42.1 ± 0.68%
CCOc1cc(C(=O)Nc2ccc(Cl)c(-c3nc4ccccc4[nH]3)c2)cc(OCC)c1OCC,percent Bodipy-positive cells,[1],36.5 ± 6.5%
CC1(C)S[C@@H]2[C@H](NC(=O)[C@H](N)c3ccccc3)C(=O)N2[C@H]1C(=O)O [Ampicillin Trihydrate],percent Bodipy-positive cells,[2],9.87 ± 3.1%
same,percent Bodipy-positive cells,[1],35.9 ± 18%
CC1(C)S[C@@H]2[C@H](NC(=O)[C@H](N)c3ccccc3)C(=O)N2[C@H]1C(=O)O [Ampicillin sodium],percent Bodipy-positive cells,[2],16.3 ± 2.3%
same,percent Bodipy-positive cells,library stock concentration: 5.4 mM,3.42 ± 0.55%
same,percent Bodipy-positive cells,[1],32.7% and 14%
CC1(C)S[C@@H]2[C@H](NC(=O)[C@H](N)c3ccccc3)C(=O)N2[C@H]1C(=O)O [Ampicillin trihydrate],percent Bodipy-positive cells,,18.66 ± 0.099%
same,percent Bodipy-positive cells,library stock concentration: 5.7 mM,12.3 ± 0.88%
CC1(C)S[C@@H]2[C@H](NC(=O)[C@H](N)c3ccccc3)C(=O)N2[C@H]1C(=O)O [Ampicillin Sodium],percent Bodipy-positive cells,[1],26.1 ± 3.7%
C=C[C@H]1CN2CC[C@H]1C[C@H]2[C@H](O)c1ccnc2ccc(OC)cc12 [Quinine HCl Dihydrate],percent Bodipy-positive cells,[2],15 ± 2%
same,percent Bodipy-positive cells,[1],34.5 ± 4.5%
C=C[C@H]1CN2CC[C@H]1C[C@H]2[C@H](O)c1ccnc2ccc(OC)cc12 [Quinine sulfate],percent Bodipy-positive cells,library stock concentration: 4.7 mM,44.1 ± 5.9%
